From patent publication US20240376163A1, “PEPTIDE FOR INHIBITING CALCINEURIN AND USE THEREOF” (Seoul National University R&DB Foundation, priority 2023, published 2024)
No constants are given. Whether binding was seen depends on the method and setting. Some results given as binding are weak or reduced against the parent protein; the word gives no strength.

Protein sequences, listed by entry. Tags and fused reporters are not part of them.
UniProt Q9Y6J0: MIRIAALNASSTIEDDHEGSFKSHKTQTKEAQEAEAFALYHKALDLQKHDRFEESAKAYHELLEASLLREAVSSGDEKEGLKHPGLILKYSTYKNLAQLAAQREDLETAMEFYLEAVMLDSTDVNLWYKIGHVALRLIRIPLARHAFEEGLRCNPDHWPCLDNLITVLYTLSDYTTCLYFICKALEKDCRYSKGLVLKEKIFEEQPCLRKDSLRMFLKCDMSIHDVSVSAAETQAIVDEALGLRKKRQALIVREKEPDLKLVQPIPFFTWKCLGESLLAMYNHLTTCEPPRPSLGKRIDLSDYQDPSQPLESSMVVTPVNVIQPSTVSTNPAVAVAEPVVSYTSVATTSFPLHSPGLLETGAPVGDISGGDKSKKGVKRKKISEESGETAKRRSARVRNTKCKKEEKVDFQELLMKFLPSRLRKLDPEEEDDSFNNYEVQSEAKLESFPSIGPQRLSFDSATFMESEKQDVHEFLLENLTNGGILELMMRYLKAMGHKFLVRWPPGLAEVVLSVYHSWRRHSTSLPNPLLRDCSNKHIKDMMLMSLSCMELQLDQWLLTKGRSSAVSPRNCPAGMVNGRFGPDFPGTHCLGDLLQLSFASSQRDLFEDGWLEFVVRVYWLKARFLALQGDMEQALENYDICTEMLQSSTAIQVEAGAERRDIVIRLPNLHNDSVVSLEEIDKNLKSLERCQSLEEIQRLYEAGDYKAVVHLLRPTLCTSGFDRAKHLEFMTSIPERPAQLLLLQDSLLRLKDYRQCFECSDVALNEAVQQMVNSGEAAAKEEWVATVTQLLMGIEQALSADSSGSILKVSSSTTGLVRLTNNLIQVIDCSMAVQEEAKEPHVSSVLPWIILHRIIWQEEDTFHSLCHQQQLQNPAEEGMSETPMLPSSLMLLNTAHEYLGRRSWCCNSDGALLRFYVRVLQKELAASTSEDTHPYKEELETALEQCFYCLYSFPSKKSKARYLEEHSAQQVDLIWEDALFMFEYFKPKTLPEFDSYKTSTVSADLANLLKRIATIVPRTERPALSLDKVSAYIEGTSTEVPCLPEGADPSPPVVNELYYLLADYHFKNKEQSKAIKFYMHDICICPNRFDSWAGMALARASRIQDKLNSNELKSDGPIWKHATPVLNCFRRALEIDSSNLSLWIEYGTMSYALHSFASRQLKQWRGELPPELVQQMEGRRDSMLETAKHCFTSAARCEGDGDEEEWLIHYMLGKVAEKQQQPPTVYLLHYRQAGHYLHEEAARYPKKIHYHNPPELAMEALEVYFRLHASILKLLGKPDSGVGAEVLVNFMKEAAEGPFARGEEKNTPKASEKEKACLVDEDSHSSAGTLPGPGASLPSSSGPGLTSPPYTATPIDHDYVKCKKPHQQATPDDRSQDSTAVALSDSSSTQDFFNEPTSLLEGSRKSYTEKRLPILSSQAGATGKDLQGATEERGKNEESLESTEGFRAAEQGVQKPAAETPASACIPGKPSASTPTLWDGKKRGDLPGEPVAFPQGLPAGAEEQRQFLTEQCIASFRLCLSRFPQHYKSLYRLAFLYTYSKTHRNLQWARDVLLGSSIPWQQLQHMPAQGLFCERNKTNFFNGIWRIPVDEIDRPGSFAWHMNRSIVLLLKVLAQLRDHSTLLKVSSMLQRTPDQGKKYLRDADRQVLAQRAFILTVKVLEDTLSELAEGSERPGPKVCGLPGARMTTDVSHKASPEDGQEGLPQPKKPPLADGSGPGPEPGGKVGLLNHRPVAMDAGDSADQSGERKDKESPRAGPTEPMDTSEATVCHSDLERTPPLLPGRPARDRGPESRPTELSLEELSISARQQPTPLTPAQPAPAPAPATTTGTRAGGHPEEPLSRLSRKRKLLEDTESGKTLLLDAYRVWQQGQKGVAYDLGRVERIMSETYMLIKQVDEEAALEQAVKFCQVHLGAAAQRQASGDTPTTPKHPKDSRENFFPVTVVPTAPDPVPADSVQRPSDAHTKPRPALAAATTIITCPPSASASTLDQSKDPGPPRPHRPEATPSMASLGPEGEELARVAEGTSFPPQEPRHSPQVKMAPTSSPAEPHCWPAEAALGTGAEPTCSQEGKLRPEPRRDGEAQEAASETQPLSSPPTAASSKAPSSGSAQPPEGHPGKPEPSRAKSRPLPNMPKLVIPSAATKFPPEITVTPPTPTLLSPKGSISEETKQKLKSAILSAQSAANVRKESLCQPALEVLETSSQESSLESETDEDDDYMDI
UniProt Q16539: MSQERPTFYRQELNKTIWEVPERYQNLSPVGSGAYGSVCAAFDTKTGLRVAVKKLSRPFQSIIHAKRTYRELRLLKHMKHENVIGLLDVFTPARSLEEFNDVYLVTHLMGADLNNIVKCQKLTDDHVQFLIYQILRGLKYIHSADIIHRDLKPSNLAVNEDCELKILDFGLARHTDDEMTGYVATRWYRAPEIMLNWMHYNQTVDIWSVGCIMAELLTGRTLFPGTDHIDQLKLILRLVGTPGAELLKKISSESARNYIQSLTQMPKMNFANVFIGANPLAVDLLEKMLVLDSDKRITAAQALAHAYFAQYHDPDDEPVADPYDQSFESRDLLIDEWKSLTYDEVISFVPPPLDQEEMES

Molecular target: HA-CABIN1 (UniProt Q9Y6J0)
Experiment: immunoprecipitation of Flag-MAPK and HA-CABIN1 in HEK293T cells

binding: binds
Substance: Flag-MAPK: p38a (from UniProt Q16539 1-360) (enzyme)
